Reference: patent US4154727A, “Dipeptide derivatives and their production” (Shionogi & Co., Ltd., priority 1974, dated 1979)

What was measured:
DS male mice [1] = experiment: Anti-pentylenetetrazol activity; conditions: for times more potent than diazepam, anti-pentylenetetrazol activity: relative to diazepam (Compound No. 5)
DS male mice [2] = experiment: Taming activity (inhibition of fighting responses); assay type: in vivo; conditions: for times more potent than diazepam, taming activity: relative to diazepam (Compound No. 5)
Description: This test was measured on DS male mice. […] These pairs of mice were selected in the morning and used for drug test in the afternoon. The test compound was administered to both mice of the pairs 60 minutes prior to the experiment. Results were obtained as the mean percentage of inhibition of fighting responses in a group of 5 pairs and shown by ED50 [Tedeschi, et al.: J. Pharmacol Exp. Thev., 125, 28-34 (1959)].

[3] = relative to chlordiazepoxide (Compound No. 4)

Row | Structure (SMILES) | times more potent than chlordiazepoxide, anti-pentylenetetrazol activity (DS male mice [1]; [3]) | times more potent than chlordiazepoxide, taming activity (DS male mice [2]; [3]) | times more potent than diazepam, anti-pentylenetetrazol activity (DS male mice [1]) | times more potent than diazepam, taming activity (DS male mice [2])
1 | CN(C(=O)CNC(=O)CN)c1ccc(Cl)cc1C(=O)c1ccccc1 [Compound No. 1, 2-benzoyl-4-chloro-N-methyl-N-glycyl-glycinanilide] | 2 to 3 times | 2 to 3 times | – | –
2 | CN(C(=O)CNC(=O)CN)c1ccc(Cl)cc1C(=O)c1ccccc1Cl.O [Compound No. 2, 2-o-chlorobenzoyl-4-chloro-N-methyl-N^α -glycyl-glycinanilide hydrate] | – | – | 2 to 4 times | 2 to 4 times
3 | CN(C(=O)CNC(=O)CN)c1ccc(Cl)cc1C(=O)c1ccccc1F.Cl [Compound No. 3, 2-o-fluorobenzoyl-4-chloro-N-methyl-N^α -glycyl-glycinanilide hydrochloride] | – | – | 2 to 4 times | 2 to 4 times
